# Laboratory results: the supplement of paper PMC6445147
# Single values of this data set are uncertain.
# B1: human tRNA-Pro; a variant is named by its letters at N, in order (parent)
# chain: GGCTCGTTGGTCTAGNGGTATGATTCTCGCTTAGGGTGCGAGAGGTCCCGGGTTCNNATCCCGGACGAGCCC
# Variants of: B1
# Assay: tRNA 5' processing efficiency (processed reads / all reads, maximum-likelihood estimate) (fraction); higher = more efficient 5' processing
# Details: HEK293T; construct: CMV Pol-II promoter ((+)CMV library, decapped)
row,Variant,tRNA 5' processing efficiency
1,GAA T8C A14C T59A,0.4
2,GAA G15A T54A A58T,0.2
3,GAA T8A A14G T53A,0.25
4,GAA A20G C55A,0.25
5,GAA A20G C55T,0.25
6,GAA A20G T53C C55G T59A,0.14
7,GAA A14T G18A T19G,0.2
8,TAA G15T T19G T54C T59G,0.14
9,GAA G17A T54A A58T,0.33
10,GAA T8A G17T G18T,0.25
11,GAA T8A C55T T59C,0.09
12,TAA G9T G15T T59G,0.2
13,GAA A20G T54G T59A,0.33
14,GAA G15T T19A T54C,0.25
15,GAA G17A T19A,0.25
16,GAA G9A C55G,0.3
17,AAA A14T G15T C55A,0.25
18,CAA A14T G18C A20G T59C,0.25
19,GAA G9C G15T T19A T54A,0.25
20,GAA G15T A20C T54C C55G,0.33
21,GAA G18T A20G T53A T59A,0.14
22,GAA G9A G18C T19G,0.1
23,GAA G2A T19G A20G T53A T59G,0.5
24,GAA G15A T19G C55G,0.43

row,Variant,tRNA 5' processing efficiency
1,GAA G51A T54A,0.14
2,GAA A14T T54G,0.33
3,GAA G17T G18A A20T T53A,0.17
4,GAA G15C A20T C55G A58T,0.2
5,AAA G9A G18T A20G T54A,0.5
6,GAA G17A A58G,0.33
7,GAA G17A T19A A20C,0.08
8,AAA G15T,0.16
9,AAA G15C,0.33
10,GAA G18T T53G T59G,0.5
11,GAA T8C C55T A58T T59G,0.5
12,GAA G9A G15T G17C,0.15
13,GAA G9C A20T,0.33
14,CAA G17C A20C T54C,0.33
15,GAA A14T G17C G18A,0.17
16,GAA T8A G15T T53A,0.5
17,TAA G18A T19G T53G T59G,0.2
18,GAA T8C G9A T54C C55T A58G,0.33
19,GAA G9T T19C A20C T54G,0.2
20,GAA A14T G17T,0.67
21,GAA G17A T53G,0.11
22,AAA G18T A58T,0.2
23,CAA G9T G17A G18T T53G C55A,0.33
24,GAA T8C G9T T59C,0.4

row,Variant,tRNA 5' processing efficiency
1,TAA G15T G17A,0.33
2,GAA G18T A20T T59G,0.57
3,TAA G9A C55A A58C,0.25
4,GAA G15C A58T T59A,0.25
5,GAA A20T A23T T54C,0.4
6,GAA G9A A14G T19A A20T C55A A58G,0.25
7,GAA G9T G15C T53A C55T T59A,0.25
8,GAA G9A G17T G18C A20G T59A,0.17
9,GAA T8A G9A A14G G18T A20C T53A,0.25
10,GAA G17C T19G,0.33
11,GAA G9C T54A,0.5
12,GAA A14T T19C T54C T59G,0.73
13,GAA G15T T53G,0.5
14,GAA A20T T54C,0.33
15,GAA G17T A20T C55G,0.33
16,GAA G9C G15T A58T,0.07
17,GAA G17C G18T A20T,0.2
18,GAA A14T T54A A58C,0.33
19,TAA G9A G15T G17A T54C,0.25
20,AAA G17T C55G,0.2
21,GAA G17A T19A C55T,0.25
22,GAA T8A T19A A58C,0.25
23,GAA G9A G15T G18C,0.25
24,GAA A20T C55A,0.5

row,Variant,tRNA 5' processing efficiency
1,GAA G9T T19C A20T C55G A58T,0.25
2,AAA G15C C55A,0.5
3,GAA T8C G9C T19C,0.33
4,GAA G18A A20C T54G C55T A58T,0.33
5,GAA G17T A20G C55T,0.25
6,GAA G9A G17C A20T A23T T53G T59A,0.25
7,GAA T8C G15T G18A C55T,0.5
8,GAA G15A G17A A58C T59C,0.33
9,GAA G15A G17C T54G,0.17
10,AAA G15C T54C C55G T59A,0.33
11,GAA A58T G63A,0.33
12,GAA T8A A14T T19A A20T C55A A58G T59C,0.5
13,GAA G9T T19A A20G T53G A58G,0.09
14,GAA A14T G18T C55A A58T,0.25
15,GAA A14T G18A C55T,0.13
16,GAA A14T G35A T53G,0.5
17,CAA G15C C55G A58T,0.33
18,GAA A14T G17T C55G,0.2
19,GAA G18T T54A,0.25
20,GAA G18T T54C,0.25
21,GAA T8C A14T G15T G17T G18A T53A T59C,0.17
22,GAA T8A G9T C55G,0.17
23,CAA G9T G17A T19A,0.25
24,AAA T8A A20T,0.5

row,Variant,tRNA 5' processing efficiency
1,TAA T8A A14T T19A C55A,0.4
2,GAA T8C A14G G17C T53C T54C,0.25
3,AAA G15A G18T T53A T59G,0.4
4,GAA T8A G15A T53G T54A,0.25
5,GAA G15T G17A T19G T53A,0.17
6,TAA G9A T19A A20T,0.33
7,GAA G17A A20T A58T,0.25
8,GAA G9T G18A A20T T54A,0.25
9,GAA G9C G15T T53A A58G,0.25
10,AAA T8A A20G T54C,0.25
11,GAA G17T C55T,0.14
12,CAA G9T G18T,0.2
13,TAA A20G T53C C55G A58C,0.4
14,GAA A14T G18A A20T T53C T59C,0.17
15,CAA T8A G9T G15A G17C A58T,0.25
16,GAA G17A G18T A58T,0.78
17,GAA G9A A20T T54A,0.25
18,TAA G15T A20C T54A C55T,0.13
19,GAA G17C C55A,0.34
20,GAA G9C G15A G18T,0.4
21,AAA G15T A20G T59C,0.4
22,GAA G9C G15T T54C A58G,0.2
23,GAA G15T T54A C55G,0.2
24,GAA G15T C55T A58T,0.25

row,Variant,tRNA 5' processing efficiency
1,GAA G9C A14C G17A G18C T19C A58C T59A,0.25
2,GAA T8C C55G A58C,0.2
3,GAA T8C G15T A20G T54G A58C T59G,0.11
4,GAA T8A A20T,0.2
5,AAA A20C G50T T53G A58C,0.25
6,GAA A14T G17C G18C T53G T54C,0.25
7,GAA G17A T19C T53C,0.33
8,GAA T8C A14G C55T,0.25
9,GAA G9A A41T,0.33
10,GAA T8C C55G,0.2
11,GAA G15C T54G A58T,0.25
12,GAA G9A G15A G18A A20C T59C,0.2
13,GAA G15T T19G C55T A58G T59G,0.17
14,GAA G15T G18T A20G,0.5
15,GAA T8C G9C T53C T54A T59C,0.25
16,GAA C55A A58G,0.25
17,GAA G18C A20G,0.38
18,GAA G9T C55T,0.27
19,GAA G9T C55G,0.2
20,GAA A20C T53G C55A,0.17
21,GAA G9C A14G T59G,0.17
22,GAA G15C G51A T54A,0.33
23,AAA G17T T54C,0.25
24,GAA G15C T19C,0.5

# An excerpt of these results, with tabs.
row	Variant	tRNA 5' processing efficiency
14	CAA G17C A20C T54C	0.33
15	GAA A14T G17C G18A	0.17
16	GAA T8A G15T T53A	0.5
17	TAA G18A T19G T53G T59G	0.2
18	GAA T8C G9A T54C C55T A58G	0.33
19	GAA G9T T19C A20C T54G	0.2
20	GAA A14T G17T	0.67
21	GAA G17A T53G	0.11
22	AAA G18T A58T	0.2
23	CAA G9T G17A G18T T53G C55A	0.33
24	GAA T8C G9T T59C	0.4
1	TAA G15T G17A	0.33
2	GAA G18T A20T T59G	0.57
3	TAA G9A C55A A58C	0.25
4	GAA G15C A58T T59A	0.25
5	GAA A20T A23T T54C	0.4
6	GAA G9A A14G T19A A20T C55A A58G	0.25
7	GAA G9T G15C T53A C55T T59A	0.25
8	GAA G9A G17T G18C A20G T59A	0.17
9	GAA T8A G9A A14G G18T A20C T53A	0.25
10	GAA G17C T19G	0.33
11	GAA G9C T54A	0.5
12	GAA A14T T19C T54C T59G	0.73
13	GAA G15T T53G	0.5
14	GAA A20T T54C	0.33
15	GAA G17T A20T C55G	0.33
16	GAA G9C G15T A58T	0.07
17	GAA G17C G18T A20T	0.2
18	GAA A14T T54A A58C	0.33
19	TAA G9A G15T G17A T54C	0.25
20	AAA G17T C55G	0.2

# Additional records follow:

row,Variant,tRNA 5' processing efficiency
1,GAA G9A G17A,0.2
2,GAA T8A A14C A58T,0.29
3,GAA A14T T19A T54G,0.25
4,GAA G18A T53C A58G,0.25
5,GAA T8A T19C A58C,0.2
6,CAA G15C G18T,0.33
7,GAA G15T A58G T59C,0.2
8,GAA G9T G18T T53G,0.17
9,GAA G17T T19A A20G T53C A58G T59C,0.18
10,GAA T8A G15C T53A,0.33
11,GAA T8C G15T T19G T53G T54A T59C,0.33
12,AAA G17T G18T,0.2
13,GAA G15C T54G,0.3
14,GAA G9C G18C T19A T53A T54G T59A,0.2
15,GAA G15C G17T T19A,0.2
16,GAA A14T G18A T54C C55G,0.33
17,GAA T8C A20C C55T,0.33
18,GAA G15A G17C T19C C55G,0.25
19,GAA G9A A14T G17C,0.25
20,AAA G17T,0.17
21,GAA G15C G17A,0.14
22,AAA G9T T53A,0.7
23,GAA T8C G15A A20T,0.11
